Test results published in the supplement of paper PMC12819154, “High-throughput peptide-centric local stability assay extends protein–ligand identification to membrane proteins, tissues and bacteria” (Nature Structural & Molecular Biology, 2025).
This is one part of the list. Most entries show no effect beyond the scatter of the controls.

By UniProt entry, the sequences of proteins in these tests, tags left out. Where a name states a change or a piece, a line headed by the entry shows the natural chain unless it says otherwise.
UniProt Q9BSC4: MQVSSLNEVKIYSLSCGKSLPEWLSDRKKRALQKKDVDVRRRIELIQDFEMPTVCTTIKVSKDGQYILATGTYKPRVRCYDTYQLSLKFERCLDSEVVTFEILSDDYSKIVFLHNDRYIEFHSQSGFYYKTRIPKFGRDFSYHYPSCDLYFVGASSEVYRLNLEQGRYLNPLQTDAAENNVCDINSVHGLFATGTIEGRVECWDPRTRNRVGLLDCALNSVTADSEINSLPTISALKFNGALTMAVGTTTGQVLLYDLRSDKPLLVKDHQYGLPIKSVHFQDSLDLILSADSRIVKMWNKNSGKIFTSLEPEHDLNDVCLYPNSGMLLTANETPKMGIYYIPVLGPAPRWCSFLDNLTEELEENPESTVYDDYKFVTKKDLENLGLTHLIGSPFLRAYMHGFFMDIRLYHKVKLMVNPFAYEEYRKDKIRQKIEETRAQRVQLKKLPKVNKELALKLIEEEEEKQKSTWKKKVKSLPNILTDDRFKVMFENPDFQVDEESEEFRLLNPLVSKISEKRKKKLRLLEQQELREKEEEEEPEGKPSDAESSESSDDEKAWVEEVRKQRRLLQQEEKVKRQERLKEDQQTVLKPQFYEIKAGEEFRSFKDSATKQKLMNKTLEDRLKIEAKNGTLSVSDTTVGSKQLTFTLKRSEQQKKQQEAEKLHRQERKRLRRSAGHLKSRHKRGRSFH
UniProt Q9BQG2: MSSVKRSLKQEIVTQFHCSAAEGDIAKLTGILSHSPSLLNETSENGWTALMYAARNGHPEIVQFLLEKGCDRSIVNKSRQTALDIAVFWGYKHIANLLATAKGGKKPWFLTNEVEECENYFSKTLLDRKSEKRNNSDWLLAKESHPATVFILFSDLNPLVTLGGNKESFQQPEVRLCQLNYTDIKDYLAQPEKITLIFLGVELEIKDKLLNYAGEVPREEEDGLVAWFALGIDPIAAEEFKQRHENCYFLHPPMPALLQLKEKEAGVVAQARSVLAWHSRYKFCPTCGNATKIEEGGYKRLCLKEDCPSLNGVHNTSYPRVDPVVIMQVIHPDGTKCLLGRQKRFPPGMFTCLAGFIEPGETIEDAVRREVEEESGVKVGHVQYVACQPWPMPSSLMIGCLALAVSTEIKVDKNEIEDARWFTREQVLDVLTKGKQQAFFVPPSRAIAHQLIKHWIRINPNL
UniProt Q9BUN8: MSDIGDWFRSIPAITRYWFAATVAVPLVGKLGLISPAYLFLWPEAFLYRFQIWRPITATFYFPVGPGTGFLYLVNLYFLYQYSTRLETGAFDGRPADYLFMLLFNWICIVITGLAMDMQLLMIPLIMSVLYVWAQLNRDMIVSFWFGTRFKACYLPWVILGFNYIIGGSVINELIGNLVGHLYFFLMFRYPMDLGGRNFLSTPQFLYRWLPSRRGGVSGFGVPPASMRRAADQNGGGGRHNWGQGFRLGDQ
UniProt Q99676: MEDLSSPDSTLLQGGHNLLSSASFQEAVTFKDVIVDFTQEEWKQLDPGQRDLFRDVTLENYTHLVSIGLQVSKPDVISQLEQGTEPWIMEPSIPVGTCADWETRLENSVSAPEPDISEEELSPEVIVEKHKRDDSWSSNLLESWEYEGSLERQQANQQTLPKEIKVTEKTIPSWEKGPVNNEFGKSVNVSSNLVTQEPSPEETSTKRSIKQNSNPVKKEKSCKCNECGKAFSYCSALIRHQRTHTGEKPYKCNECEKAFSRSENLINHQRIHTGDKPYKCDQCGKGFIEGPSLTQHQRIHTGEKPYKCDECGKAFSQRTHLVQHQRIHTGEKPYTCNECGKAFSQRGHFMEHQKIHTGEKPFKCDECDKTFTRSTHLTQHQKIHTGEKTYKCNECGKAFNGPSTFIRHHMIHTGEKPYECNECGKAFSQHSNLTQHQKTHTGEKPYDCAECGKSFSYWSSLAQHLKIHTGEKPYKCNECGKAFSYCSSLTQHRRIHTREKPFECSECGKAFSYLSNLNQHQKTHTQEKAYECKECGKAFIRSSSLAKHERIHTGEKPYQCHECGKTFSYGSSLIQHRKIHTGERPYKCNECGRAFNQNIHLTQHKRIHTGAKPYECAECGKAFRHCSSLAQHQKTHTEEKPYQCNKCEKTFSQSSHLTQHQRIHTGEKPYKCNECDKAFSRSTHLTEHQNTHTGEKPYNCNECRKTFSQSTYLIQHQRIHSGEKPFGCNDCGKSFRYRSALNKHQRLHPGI
UniProt Q9BUT9: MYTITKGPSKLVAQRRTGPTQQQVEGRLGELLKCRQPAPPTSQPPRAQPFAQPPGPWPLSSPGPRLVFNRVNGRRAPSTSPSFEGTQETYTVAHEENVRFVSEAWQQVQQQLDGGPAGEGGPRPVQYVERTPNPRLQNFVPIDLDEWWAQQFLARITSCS
UniProt Q99717: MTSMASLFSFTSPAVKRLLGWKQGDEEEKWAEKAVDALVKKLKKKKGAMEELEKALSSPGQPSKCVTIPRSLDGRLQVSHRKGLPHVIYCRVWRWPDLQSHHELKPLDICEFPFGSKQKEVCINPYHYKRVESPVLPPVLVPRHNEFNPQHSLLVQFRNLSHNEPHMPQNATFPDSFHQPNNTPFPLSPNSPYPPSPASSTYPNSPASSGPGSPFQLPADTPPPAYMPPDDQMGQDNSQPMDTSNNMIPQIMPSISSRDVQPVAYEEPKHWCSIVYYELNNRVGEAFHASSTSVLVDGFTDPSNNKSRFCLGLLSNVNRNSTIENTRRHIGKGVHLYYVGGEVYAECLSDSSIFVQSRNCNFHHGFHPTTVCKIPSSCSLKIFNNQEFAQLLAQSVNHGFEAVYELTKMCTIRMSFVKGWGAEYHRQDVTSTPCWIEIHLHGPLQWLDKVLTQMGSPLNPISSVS
UniProt Q99798: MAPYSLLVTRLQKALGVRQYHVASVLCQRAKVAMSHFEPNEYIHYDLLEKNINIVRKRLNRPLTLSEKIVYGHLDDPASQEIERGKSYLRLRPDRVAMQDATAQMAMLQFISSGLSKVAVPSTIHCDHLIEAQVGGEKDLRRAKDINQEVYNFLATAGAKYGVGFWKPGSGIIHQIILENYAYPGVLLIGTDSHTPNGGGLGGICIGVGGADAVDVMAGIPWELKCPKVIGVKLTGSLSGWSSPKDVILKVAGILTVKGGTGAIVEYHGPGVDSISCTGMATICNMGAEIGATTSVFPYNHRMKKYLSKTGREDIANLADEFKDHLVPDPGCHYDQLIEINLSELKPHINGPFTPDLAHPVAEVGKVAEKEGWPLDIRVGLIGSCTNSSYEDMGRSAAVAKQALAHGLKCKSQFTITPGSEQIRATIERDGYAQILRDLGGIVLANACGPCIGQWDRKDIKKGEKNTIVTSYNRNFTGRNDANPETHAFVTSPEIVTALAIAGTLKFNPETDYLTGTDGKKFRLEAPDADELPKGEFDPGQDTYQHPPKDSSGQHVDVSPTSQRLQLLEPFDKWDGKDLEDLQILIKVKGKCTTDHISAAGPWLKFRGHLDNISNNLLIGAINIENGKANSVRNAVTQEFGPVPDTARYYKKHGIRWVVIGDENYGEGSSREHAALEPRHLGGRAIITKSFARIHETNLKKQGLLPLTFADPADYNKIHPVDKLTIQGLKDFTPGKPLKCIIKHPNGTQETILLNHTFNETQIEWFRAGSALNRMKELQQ
UniProt Q9BW71: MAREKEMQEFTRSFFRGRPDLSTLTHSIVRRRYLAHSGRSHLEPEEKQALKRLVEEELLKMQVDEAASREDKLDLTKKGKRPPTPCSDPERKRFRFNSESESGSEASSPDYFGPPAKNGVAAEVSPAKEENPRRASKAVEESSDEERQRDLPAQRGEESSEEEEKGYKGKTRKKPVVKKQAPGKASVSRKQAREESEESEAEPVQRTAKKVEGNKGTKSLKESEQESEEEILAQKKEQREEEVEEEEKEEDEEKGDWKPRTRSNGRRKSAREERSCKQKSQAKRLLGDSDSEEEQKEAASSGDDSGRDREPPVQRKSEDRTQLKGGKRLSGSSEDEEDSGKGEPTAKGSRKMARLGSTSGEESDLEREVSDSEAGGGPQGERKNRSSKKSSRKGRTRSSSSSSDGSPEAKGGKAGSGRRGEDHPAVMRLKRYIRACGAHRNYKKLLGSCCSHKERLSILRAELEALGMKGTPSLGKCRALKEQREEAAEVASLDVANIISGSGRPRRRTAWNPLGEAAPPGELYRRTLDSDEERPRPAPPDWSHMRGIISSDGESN
UniProt Q9BRA0: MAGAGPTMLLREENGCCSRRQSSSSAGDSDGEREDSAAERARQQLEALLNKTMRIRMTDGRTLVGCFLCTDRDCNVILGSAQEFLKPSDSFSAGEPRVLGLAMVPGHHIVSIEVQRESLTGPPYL
UniProt Q99551: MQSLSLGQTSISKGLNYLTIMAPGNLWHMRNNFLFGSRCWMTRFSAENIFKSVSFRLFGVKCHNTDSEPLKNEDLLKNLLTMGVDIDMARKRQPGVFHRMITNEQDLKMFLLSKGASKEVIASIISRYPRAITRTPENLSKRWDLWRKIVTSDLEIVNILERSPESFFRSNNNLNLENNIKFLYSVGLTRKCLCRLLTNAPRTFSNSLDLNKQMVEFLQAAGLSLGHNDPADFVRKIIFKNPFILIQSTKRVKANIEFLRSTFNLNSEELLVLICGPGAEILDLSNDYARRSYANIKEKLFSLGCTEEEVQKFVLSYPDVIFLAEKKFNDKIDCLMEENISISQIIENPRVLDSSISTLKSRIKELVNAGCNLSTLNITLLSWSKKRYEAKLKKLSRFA
UniProt Q99758: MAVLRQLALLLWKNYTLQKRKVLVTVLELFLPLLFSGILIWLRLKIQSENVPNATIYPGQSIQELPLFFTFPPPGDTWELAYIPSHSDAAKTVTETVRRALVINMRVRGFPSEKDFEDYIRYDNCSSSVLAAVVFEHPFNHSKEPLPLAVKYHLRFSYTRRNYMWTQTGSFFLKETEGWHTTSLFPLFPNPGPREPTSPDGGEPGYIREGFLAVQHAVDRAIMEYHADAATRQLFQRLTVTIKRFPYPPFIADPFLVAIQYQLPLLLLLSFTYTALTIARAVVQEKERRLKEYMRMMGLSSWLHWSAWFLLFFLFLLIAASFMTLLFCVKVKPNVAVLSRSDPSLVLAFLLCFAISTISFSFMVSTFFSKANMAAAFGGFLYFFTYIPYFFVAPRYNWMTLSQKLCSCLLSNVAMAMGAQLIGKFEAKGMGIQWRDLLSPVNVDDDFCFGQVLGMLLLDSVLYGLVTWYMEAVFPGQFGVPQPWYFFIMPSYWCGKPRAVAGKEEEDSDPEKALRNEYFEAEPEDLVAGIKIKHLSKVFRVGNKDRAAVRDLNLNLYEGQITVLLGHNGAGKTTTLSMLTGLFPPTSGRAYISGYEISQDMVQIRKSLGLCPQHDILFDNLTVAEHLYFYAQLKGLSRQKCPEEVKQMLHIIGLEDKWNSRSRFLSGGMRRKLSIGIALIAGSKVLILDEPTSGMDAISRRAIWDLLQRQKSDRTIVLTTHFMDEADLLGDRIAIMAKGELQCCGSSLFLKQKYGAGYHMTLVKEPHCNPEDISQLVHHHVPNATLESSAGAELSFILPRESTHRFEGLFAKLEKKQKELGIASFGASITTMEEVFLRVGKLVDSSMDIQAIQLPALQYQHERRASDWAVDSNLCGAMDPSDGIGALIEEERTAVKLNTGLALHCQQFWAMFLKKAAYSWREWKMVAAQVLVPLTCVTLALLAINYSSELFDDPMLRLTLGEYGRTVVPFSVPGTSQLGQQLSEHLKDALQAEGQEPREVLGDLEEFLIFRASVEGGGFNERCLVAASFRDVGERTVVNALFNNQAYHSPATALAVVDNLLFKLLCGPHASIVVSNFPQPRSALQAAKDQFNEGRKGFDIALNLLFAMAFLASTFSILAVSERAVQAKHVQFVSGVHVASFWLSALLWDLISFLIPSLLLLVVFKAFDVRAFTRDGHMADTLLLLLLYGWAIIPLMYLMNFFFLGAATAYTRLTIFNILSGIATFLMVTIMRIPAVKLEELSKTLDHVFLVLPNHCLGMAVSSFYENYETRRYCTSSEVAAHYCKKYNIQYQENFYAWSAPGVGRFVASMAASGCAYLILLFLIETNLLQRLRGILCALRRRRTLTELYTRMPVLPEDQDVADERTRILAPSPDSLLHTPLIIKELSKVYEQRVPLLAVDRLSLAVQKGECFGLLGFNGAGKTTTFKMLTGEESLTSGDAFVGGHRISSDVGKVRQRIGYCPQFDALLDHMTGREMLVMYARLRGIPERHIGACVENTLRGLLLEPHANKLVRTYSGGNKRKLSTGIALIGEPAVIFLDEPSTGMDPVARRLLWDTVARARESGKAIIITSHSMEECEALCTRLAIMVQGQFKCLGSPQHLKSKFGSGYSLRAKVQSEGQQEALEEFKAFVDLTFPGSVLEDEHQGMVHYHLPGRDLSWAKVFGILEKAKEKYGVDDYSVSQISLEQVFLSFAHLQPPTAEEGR

compound: CN[C@@H]1C[C@H]2O[C@@](C)([C@@H]1OC)n1c3ccccc3c3c4c(c5c6ccccc6n2c5c31)C(=O)NC4 [staurosporine]; experiment: log2 fold change of tryptic peptide abundance, ligand vs vehicle (limited proteolysis) (log2 ratio); higher = more trypsin-susceptible (destabilized); conditions: ligand concentration: 20 uM; sample: K562 cleared lysate; digestion: 4 min, 22 C (HT-PELSA RT4min, Orbitrap Astral)

Target | log2 fold change
NOL10 (peptide sequence: QKIEETR, peptide start residue: 431) (UniProt Q9BSC4) | 0.348
NUDT12 (peptide sequence: LLNYAGEVPR, peptide start residue: 209) (UniProt Q9BQG2) | -0.0482
DERL1 (peptide sequence: HNWGQGFR, peptide start residue: 240) (UniProt Q9BUN8) | -0.0496
ZNF184 (peptide sequence: KTFSQSTYLIQHQR, peptide start residue: 705) (UniProt Q99676) | -1.35
UniProt Q9BUT9 (peptide sequence: QPAPPTSQPPR, peptide start residue: 36) | -0.116
SMAD5 (peptide sequence: ALSSPGQPSK, peptide start residue: 55) (UniProt Q99717) | 0.0646
ACO2 (peptide sequence: DGYAQILR, peptide start residue: 430) (UniProt Q99798) | 0.283
HIRIP3 (peptide sequence: LVEEELLK, peptide start residue: 53) (UniProt Q9BW71) | -0.147
UniProt Q9BRA0 (peptide sequence: AGAGPTMLLR, peptide start residue: 2) | -0.152
UniProt Q99551 (peptide sequence: KIVTSDLEIVNILER, peptide start residue: 148) | 0.506
ABCA3 (peptide sequence: ILAPSPDSLLHTPLIIK, peptide start residue: 1368) (UniProt Q99758) | -0.553

Some values from the results shown:
UniProt Q99551 (peptide sequence: KIVTSDLEIVNILER, peptide start residue: 148) – log2 fold change: 0.506
ACO2 (peptide sequence: DGYAQILR, peptide start residue: 430) (UniProt Q99798) – log2 fold change: 0.283
